# In article PMC8894380:
# Sequences of proteins named here, by UniProt entry; tags and fusion partners are left off.
# UniProt P61326: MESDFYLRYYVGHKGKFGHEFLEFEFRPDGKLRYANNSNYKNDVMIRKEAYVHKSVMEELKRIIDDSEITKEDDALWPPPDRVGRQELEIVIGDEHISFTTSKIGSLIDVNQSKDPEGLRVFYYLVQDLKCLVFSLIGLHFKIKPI
# UniProt Q9BUQ8: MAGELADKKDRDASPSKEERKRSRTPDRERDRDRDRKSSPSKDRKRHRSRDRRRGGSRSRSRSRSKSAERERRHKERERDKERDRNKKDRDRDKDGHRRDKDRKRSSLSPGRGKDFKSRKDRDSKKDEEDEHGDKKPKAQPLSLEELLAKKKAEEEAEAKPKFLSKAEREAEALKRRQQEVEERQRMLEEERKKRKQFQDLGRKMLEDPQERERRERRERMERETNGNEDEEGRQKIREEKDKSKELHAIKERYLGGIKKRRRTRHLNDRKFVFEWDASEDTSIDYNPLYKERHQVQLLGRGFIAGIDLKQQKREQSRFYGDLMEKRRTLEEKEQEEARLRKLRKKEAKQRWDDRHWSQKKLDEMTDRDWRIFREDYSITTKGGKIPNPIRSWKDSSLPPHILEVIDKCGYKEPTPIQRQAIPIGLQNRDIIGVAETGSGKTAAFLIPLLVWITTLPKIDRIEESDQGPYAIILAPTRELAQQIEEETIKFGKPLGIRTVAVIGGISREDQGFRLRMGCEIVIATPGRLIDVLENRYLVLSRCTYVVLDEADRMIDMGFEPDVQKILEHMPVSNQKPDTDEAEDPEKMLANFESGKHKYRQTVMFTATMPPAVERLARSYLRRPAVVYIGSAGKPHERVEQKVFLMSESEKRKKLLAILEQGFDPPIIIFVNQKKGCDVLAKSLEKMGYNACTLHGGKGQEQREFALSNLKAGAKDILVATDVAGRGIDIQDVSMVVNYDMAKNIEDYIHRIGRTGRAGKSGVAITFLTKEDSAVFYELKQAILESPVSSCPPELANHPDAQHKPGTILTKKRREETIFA
# UniProt Q13123: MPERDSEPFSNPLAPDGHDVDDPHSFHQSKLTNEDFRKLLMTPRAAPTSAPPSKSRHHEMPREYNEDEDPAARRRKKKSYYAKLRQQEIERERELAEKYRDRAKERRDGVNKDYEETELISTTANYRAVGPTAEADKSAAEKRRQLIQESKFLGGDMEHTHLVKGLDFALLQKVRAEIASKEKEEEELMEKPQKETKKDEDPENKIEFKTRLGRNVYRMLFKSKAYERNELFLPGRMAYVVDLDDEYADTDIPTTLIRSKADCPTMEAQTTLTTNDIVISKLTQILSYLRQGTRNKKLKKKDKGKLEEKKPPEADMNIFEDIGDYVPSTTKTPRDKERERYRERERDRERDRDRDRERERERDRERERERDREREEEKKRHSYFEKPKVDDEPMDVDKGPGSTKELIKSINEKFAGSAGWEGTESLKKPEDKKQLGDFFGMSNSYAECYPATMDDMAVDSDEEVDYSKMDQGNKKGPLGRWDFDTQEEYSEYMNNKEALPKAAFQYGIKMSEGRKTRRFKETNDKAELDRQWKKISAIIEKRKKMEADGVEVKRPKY
# Numbering of substitutions follows the chain as printed. These are yes or no findings as the source states them, for the method shown. Binding seen in cells or lysates may run through a third protein. These calls come from enrichment with a bait or labelling near it, and not all partners need be listed. Tags and fused reporters may be left off the sequences shown.
# Experiments:
# [1] = biological target: T1, C9ORF78^R41A with C-terminal 3xFlag-His6-Biotin-His6 tag (human) (UniProt Q9NZ63); assay: affinity purification with mass spectrometry; Flag-IP (Flag M2 affinity gel) from 500 ug nuclear extract of Flp-In T-REx 293 stable cells, IP buffer 150 mM NaCl with benzonase, eluted with 3xFlag peptide; label-free LC-MS against control IP of unmodified cells
# T1 sequence: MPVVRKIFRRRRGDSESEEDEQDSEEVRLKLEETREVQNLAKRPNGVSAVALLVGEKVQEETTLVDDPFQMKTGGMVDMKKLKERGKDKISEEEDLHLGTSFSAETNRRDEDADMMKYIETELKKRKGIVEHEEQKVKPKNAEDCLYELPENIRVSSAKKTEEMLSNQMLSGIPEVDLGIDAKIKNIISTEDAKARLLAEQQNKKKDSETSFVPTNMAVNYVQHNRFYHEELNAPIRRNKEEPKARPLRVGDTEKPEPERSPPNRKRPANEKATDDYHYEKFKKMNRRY
# [2] = biological target: T2, C9ORF78 with C-terminal 3xFlag-His6-Biotin-His6 tag (human) (UniProt Q9NZ63); assay: as above
# T2 sequence: T1 sequence with A41R
binding [1],binding [2],Substance
binds,–,MAGOH (from UniProt P61326 1-146)
binds,–,PRPF28/DDX23 (from UniProt Q9BUQ8 1-820) (enzyme)
–,binds,RED (from UniProt Q13123 1-557)
